In brackets after ≈: the same amount, converted by molar mass.
How the values were obtained:
in vitro [1] = settings: human, Caco-2
in vitro [2] = settings: human, Caco-2; remark: listed apart in the source
physchem [3] = settings: buffer, pH 7.4
physchem [4] = settings: buffer, pH 6.8

`CC(C)c1cc(COc2ccccc2CC(=O)O)cc(-c2ccc3c(c2)[C@H](N)CO3)c1` gave a Papp B→A (in vitro [1]) of 17 ×10⁻⁶ cm/s, a Papp A→B (in vitro [2]) of 7 ×10⁻⁶ cm/s and a logD (physchem [3]) of 3.1. The solubility thermodynamic (physchem [4]) was 8 µM (≈ 3.34 µg/mL).

Source: ChEMBL document CHEMBL4619774 (J Med Chem, 2020)
